# PubChem BioAssay AID540276 (National Center for Advancing Translational Sciences (NCATS), 2011)
# Hit rate of the full screen: of about 300,000 compounds, about 5,400 (1.8%) were called active. This list was built around the results that the source calls inconclusive (neither active nor inactive); the mix of calls is not that of the screen. The call rests on the fitted dose curve; tested in HEK293 cells. Potencies of inconclusive entries are doubtful fits and often do not repeat.
# Assay: qHTS for inhibitors of binding or entry into cells for Marburg Virus
# Conditions: Marburg virus pseudotyped entry inhibition, cell reporter; series mostly up to 37.8 µM
# Potency means the concentration at half of the fitted maximal effect.
row,Compound,Potency
1,O=C(CN(c1ccc(Cl)c(C(F)(F)F)c1)S(=O)(=O)c1ccccc1)N/N=C/c1cccc2c1OCCO2,"inconclusive: 17.8 µM [inhibitor, single point]"
2,CC(C)(Oc1ccc(Cl)cc1)C(=O)Nc1ccc2oc(=O)ccc2c1,inactive
3,CCn1c(=O)c2cc(S(=O)(=O)NCc3ccccc3)ccc2n(CC)c1=O,"inconclusive: 1.3 µM [inhibitor, full curve, poor fit]"
4,COc1ccc(Br)cc1CNC(=O)CSc1cc(=O)n(C)c2ccccc12,"inconclusive: 11.2 µM [inhibitor, partial curve]"
5,Cc1ccc2nc(/C(C#N)=C/c3ccc(O)c(O)c3)[nH]c2c1,"inconclusive: 28.2 µM [inhibitor, partial curve, poor fit]"
6,CCCCN1C(=O)C(NC(=O)C2CC2)(C(F)(F)F)C2=C1CC(C)(C)CC2=O (stereo not drawn),"inconclusive: 23.1 µM [activator, single point]"
7,Cc1nnc(SCc2cccc(Oc3ccccc3)c2)n1N,"inconclusive: 35.5 µM [activator, single point]"
8,O=c1cc(N2CCOCC2)cnn1-c1ccccc1,inactive
9,CCS(=O)(=O)/N=C(\N)c1ccccc1,inactive
10,CCCCn1c(=O)[nH]c(=O)c2c1nc(-c1ccc(C)c([N+](=O)[O-])c1)n2CC,"inconclusive: 20 µM [inhibitor, single point]"
11,Cc1nc2ccccc2n1CC(=O)N/N=C\c1ccccn1,inactive
12,COc1cc(NS(=O)(=O)c2ccc(N/C=C(\C=O)c3nc4ccccc4o3)cc2)nc(OC)n1,"inconclusive: 1.26 µM [activator, single point]"
13,CCCCCC(=O)NC(=S)Nc1ccc(N2CCOCC2)cc1,inactive
14,CCCCC(C)n1[nH]c(=O)c2c(C)cc(C)nc21 (stereo not drawn),inactive
15,COc1ccc(OC)c(CNC(=O)Cc2c(C(=O)O)[nH]c3ccccc23)c1,"inconclusive: 6.51 µM [inhibitor, single point]"
16,CC(OCC(O)CN(C)CCOc1ccccc1)c1ccc(Cl)cc1 (stereo not drawn),"inconclusive: 29.1 µM [inhibitor, single point]"
17,COc1ccc(Cl)cc1NC(=O)CNc1ccccc1CN(C)C1CCCCC1,active: 2.51 µM
18,O=C(/C=C/c1ccc(F)cc1)N1CCN(c2ncccn2)CC1,inactive
19,CCOC(=O)/C(C#N)=C/C1=C(N2CCCC2)CC(C)(C)OC1,"inconclusive: 0.355 µM [activator, full curve, poor fit]"
20,CC(C)CN1CCCC(N2CCN(c3cccc(Cl)c3)CC2)C1 (stereo not drawn),"inconclusive: 5.62 µM [activator, single point]"
21,CN1CCN(C(=S)NC(=O)c2ccc(Br)cc2)CC1,inactive
22,CCOC(=O)c1c(NC(=O)CN2CCOCC2)sc2c1CC(C)(C)OC2,inactive
23,C/C=C/C(=O)OCC(=O)Nc1ccc(OC)c(OC)c1,inactive
24,CC1=C(C(=O)OCc2ccccc2)C(c2ccccc2Br)NC(=O)N1 (stereo not drawn),"inconclusive: 10 µM [inhibitor, partial curve, poor fit]"
25,Cc1cccc(C)c1NC(=O)NC1CC2CCC(C1)N2Cc1cccs1 (stereo not drawn),"inconclusive: 2.31 µM [inhibitor, partial curve, poor fit]"

row,Compound,Potency
1,CCC(C)NC(=S)N1CCN(Cc2ccc3c(c2)OCO3)CC1 (stereo not drawn),"inconclusive: 7.08 µM [activator, partial curve]"
2,COCCNC(=O)c1cccc(OC2CCN(Cc3ccccc3OCCO)CC2)c1,"inconclusive: 35.5 µM [inhibitor, single point]"
3,COc1ccc(NC(=O)COC(=O)COc2cccc(Br)c2)cc1OC,inactive
4,COc1ccc(O)c(-c2cn[nH]c2-c2cccs2)c1,inactive
5,COCCN=C1Sc2nc3c(C)cccc3cc2CN1Cc1ccco1,inactive
6,Cc1ccc(NC(=O)CN(C)C(=O)c2ccc(S(=O)(=O)N(C)c3ccccc3)cc2)cc1,"inconclusive: 11.2 µM [inhibitor, partial curve, poor fit]"
7,O=C(Cc1ccccc1)Nc1scc(-c2ccccc2)c1C(=O)N1CCOCC1,"inconclusive: 10 µM [inhibitor, partial curve, poor fit]"
8,COc1ccccc1NC1SC(=O)N(c2ccccc2)C1=O (stereo not drawn),inactive
9,C=CCSc1nnc(-c2ccc(Cl)cc2Cl)o1,inactive
10,Cc1ccc(C)c(S(=O)(=O)/N=C(/Nc2ccccc2)c2ccccc2)c1,"inconclusive: 4.47 µM [inhibitor, single point]"
11,CCOC(=O)C1CCN(c2ncnc3c2cnn3-c2ccccc2)CC1,inactive
12,CCCCn1c(=O)[nH]c(=O)c2c1nc(-c1ccc(OC(F)F)c(OC)c1)n2C,"inconclusive: 0.794 µM [inhibitor, full curve, poor fit]"
13,CC(C)COC(=O)CNc1n[nH]c(=S)[nH]c1=O,"inconclusive: 10.3 µM [activator, partial curve, poor fit]"
14,Cc1cccc(NC(=O)CN(C)S(=O)(=O)c2cnc[nH]2)c1,inactive
15,Cc1c(NC(=O)C(C)OC(=O)c2cccc(S(=O)(=O)N(C)C)c2)c(=O)n(-c2ccccc2)n1C (stereo not drawn),"inconclusive: 3.16 µM [activator, full curve]"
16,COc1ccccc1-c1noc(-c2ccccc2)n1,"inconclusive: 0.501 µM [inhibitor, full curve, poor fit]"
17,CN(C)/C=C/c1oc2ccc(O)cc2c1[N+](=O)[O-],inactive
18,CC(C)(C)c1ccc(NC(=O)CON=C(N)c2ccccc2)cc1,"inconclusive: 3.55 µM [inhibitor, single point]"
19,Nc1c(C(=O)O)cnc2c(-c3ccc(Cl)cc3)cnn12,"inconclusive: 0.631 µM [inhibitor, full curve, poor fit]"
20,N#Cc1ccc(OCC(O)CN2CCN(CC(O)COc3ccc(C#N)cc3)CC2)cc1 (stereo not drawn),"inconclusive: 3.16 µM [inhibitor, single point]"
21,O=C(NC(=S)Nc1ccccc1Br)c1ccc2c(c1)OCO2,"inconclusive: 35.5 µM [activator, single point]"
22,CCc1cc2c(=O)c(-c3nc4ccccc4n3C)c(C)oc2c(CN(CC)CC)c1O,inactive
24,COc1ccccc1N1CCN(C(=O)/C=C/c2c(Cl)nc3ccccn23)CC1,"inconclusive: 11.2 µM [inhibitor, partial curve, poor fit]"
25,Cn1cccc1/C=N/NC(=O)c1ccco1,inactive

# For reference, part of the list above:
row,Compound,Potency
13,CC(C)COC(=O)CNc1n[nH]c(=S)[nH]c1=O,"inconclusive: 10.3 µM [activator, partial curve, poor fit]"
14,Cc1cccc(NC(=O)CN(C)S(=O)(=O)c2cnc[nH]2)c1,inactive
15,Cc1c(NC(=O)C(C)OC(=O)c2cccc(S(=O)(=O)N(C)C)c2)c(=O)n(-c2ccccc2)n1C (stereo not drawn),"inconclusive: 3.16 µM [activator, full curve]"
16,COc1ccccc1-c1noc(-c2ccccc2)n1,"inconclusive: 0.501 µM [inhibitor, full curve, poor fit]"

# (more compounds)

row,Compound,Potency
1,O=C(O)C1CC(=O)N(CCOc2ccccc2)C1 (stereo not drawn),inactive
2,CC(C)CNC(=O)CC(=O)N/N=C/c1ccc(F)cc1,inactive
3,CCCN(CC(=O)Nc1cc(Cl)cc(Cl)c1)CC(=O)Nc1ccc(F)c(F)c1F,"inconclusive: 12.6 µM [inhibitor, partial curve, poor fit]"
4,COc1ccc(NC(=S)N(CCCN2CCC(C)CC2)Cc2cccs2)cc1,"inconclusive: 7.08 µM [inhibitor, full curve, poor fit]"
5,C=C(C)c1cccc(C(C)(C)NC(=O)Nc2ncccn2)c1,inactive
6,COc1ccccc1C(=O)N(Cc1ccc(C)o1)C1CCS(=O)(=O)C1 (stereo not drawn),"inconclusive: 0.316 µM [inhibitor, partial curve, poor fit]"
7,O=C(COc1ccc2ccccc2c1)N1CCN(C(=O)c2cccnc2)CC1,inactive
8,Cc1ccc(NC(=O)CCNS(=O)(=O)c2ccc(Br)s2)cc1,inactive
9,OCCC1CN(Cc2c(F)cccc2Cl)CCN1C1CCCC1 (stereo not drawn),"inconclusive: 35.5 µM [inhibitor, single point]"
10,CCOc1ccc2[nH]c3c(NCCN(CC)CC)ncnc3c2c1,"inconclusive: 7.08 µM [inhibitor, partial curve, poor fit]"
11,COc1ccc(NS(=O)(=O)c2ccc(C)c(C(=O)N(C)Cc3ccc(C)cc3)c2)cc1,"inconclusive: 22.4 µM [inhibitor, single point]"
12,COc1cccc(C2/C(=C(/O)c3ccc4c(c3)CC(C)O4)C(=O)C(=O)N2c2nnc(C)s2)c1 (stereo not drawn),"inconclusive: 1 µM [activator, full curve, poor fit]"
13,CCC(=Nc1ccc(OC)cc1OC)c1c(O)[nH]c(=O)[nH]c1=O,"inconclusive: 7.08 µM [inhibitor, partial curve]"
14,COC(=O)C1C2CCCCC1C(=O)O2 (stereo not drawn),"inconclusive: 6.31 µM [activator, single point]"
15,Cc1nc2ccccc2nc1N/N=C/c1ccc(O)cc1O,"inconclusive: 5.01 µM [inhibitor, full curve, poor fit]"
16,Cc1ccccc1/C=N\NC(=O)c1ccccc1-n1cccc1,inactive
17,COc1ccc(N2CCN(C(=O)CN3CCN(c4nc(-c5ccc(F)cc5)cs4)CC3)CC2)cc1,"inconclusive: 20 µM [inhibitor, partial curve, poor fit]"
18,O=C(CCc1nnc2n(Cc3ccccc3Cl)c(=O)c3ccccc3n12)Nc1ccc(F)cc1,"inconclusive: 35.5 µM [inhibitor, single point]"
19,O=C1OCCC1Sc1nnc(-c2ccc(Cl)cc2Cl)o1 (stereo not drawn),active: 5.01 µM
20,CCOC(=O)C1CCN(C(=O)CN(C)S(=O)(=O)c2cc(C)ccc2OC)CC1,inactive
21,CCc1c(C)nc(SCC(=O)N2C(C)CCCC2C)[nH]c1=O (stereo not drawn),inactive
22,CCOC(=O)c1ccc(NC(=O)Nc2ccc3c4c(cccc24)C(=O)N3CC)cc1,"inconclusive: 25.9 µM [inhibitor, single point]"
23,CC(=O)Nc1cccc(NC(=O)CSc2nc(C3CC3)nc3ccccc23)c1,"inconclusive: 7.94 µM [inhibitor, partial curve, poor fit]"
